# Test results published in PubChem BioAssay AID743255 (National Center for Advancing Translational Sciences (NCATS), 2014).
# By UniProt entry, the sequences of proteins in these tests, tags left out. Where a name states a change or a piece, a line headed by the entry shows the natural chain unless it says otherwise.
# UniProt O94782: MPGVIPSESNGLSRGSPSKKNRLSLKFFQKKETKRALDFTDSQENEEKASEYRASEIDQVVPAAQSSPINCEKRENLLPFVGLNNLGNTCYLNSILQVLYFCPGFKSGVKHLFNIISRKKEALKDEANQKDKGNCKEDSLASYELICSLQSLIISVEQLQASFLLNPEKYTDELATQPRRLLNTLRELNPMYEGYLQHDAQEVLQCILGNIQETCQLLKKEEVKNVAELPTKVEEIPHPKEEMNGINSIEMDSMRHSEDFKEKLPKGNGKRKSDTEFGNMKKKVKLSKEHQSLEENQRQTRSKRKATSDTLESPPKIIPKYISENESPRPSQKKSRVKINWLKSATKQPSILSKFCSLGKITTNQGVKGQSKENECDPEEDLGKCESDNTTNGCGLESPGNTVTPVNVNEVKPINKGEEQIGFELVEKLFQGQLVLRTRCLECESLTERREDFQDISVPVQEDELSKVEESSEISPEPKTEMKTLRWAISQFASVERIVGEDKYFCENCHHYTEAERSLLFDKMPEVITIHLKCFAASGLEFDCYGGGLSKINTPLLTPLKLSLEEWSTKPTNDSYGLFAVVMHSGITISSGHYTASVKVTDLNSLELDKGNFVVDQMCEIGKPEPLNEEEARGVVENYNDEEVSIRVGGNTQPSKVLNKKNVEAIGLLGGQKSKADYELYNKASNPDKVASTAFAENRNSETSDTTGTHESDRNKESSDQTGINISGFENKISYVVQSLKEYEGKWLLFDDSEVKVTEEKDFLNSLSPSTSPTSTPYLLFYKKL
# Out of some 390,000 compounds screened, about 910 (0.23%) were called active. This list was built around the results that the source calls inconclusive (neither active nor inactive); the mix of calls is not that of the screen. Calls come from the whole dose curve; as a rule, active = well fitted inhibition curve with a large enough effect; inconclusive = small, poorly fitted or top-dose-only effect; inactive = no such curve, though single readings can be large or run the other way. Potencies beside an inconclusive call are fits to weak or partial responses and may not hold up.
# Target: Ubiquitin carboxyl-terminal hydrolase 1 (Homo sapiens) (UniProt O94782)
# Test: Inhibitors of USP1/UAF1: Primary Screen; note: nearly all actives have a fitted effect of over 60% in size
# Conditions: recombinant USP1/UAF1, Ub-Rhodamine cleavage fluorescence; activity change, negative = inhibition: at 57.1 µM (top of the series)
# Outline: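 USP1/UAF1 complex at 1 nM was preincubated with compound for 15 min at room temperature, then Ub-Rho substrate (150nM final) was added. Fluorescence (480/540 nm) was read kinetically, 6 reads every 60 seconds.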
# % is set by controls: 0 for no effect and ±100 for the full control effect; potency is the fitted concentration of half-maximal effect.
SMILES,Potency,"activity change, negative = inhibition"
Cc1cc(-c2cc(C(=O)NC3CCCC3)on2)nc(NC2CCCC2)n1,"inconclusive: 3.16 µM [inhibitor, full curve]",
Cc1ccc2nc(COc3cccc(NC(=O)c4cccc(Cl)c4)c3)cc(=O)n2c1,"inconclusive: 56.2 µM [inhibitor, partial curve, poor fit]",
CCn1c(SCc2ccc(Cl)cc2Cl)nc2nc3c(cc2c1=O)CCCC3,,inactive: -13.2%
C[C@H]1CN([C@@H](C)CO)C(=O)c2cc(C#Cc3ccccn3)cnc2O[C@@H]1CN(C)Cc1ccccc1,"inconclusive: 0.282 µM [inhibitor, full curve]",
Cc1ccc2nc(N3CCC(C(=O)NCc4ccc(F)cc4)CC3)[nH]c2c1,"inconclusive: 7.94 µM [inhibitor, partial curve, poor fit]",
CC(C)(C)c1ccc(-n2ncc3c2CCCC3NC(=O)CCC2=NNC(=O)CC2)cc1 (stereo not given),"inconclusive: 5.62 µM [inhibitor, partial curve]",
CCc1ccccc1N(C)C(=O)c1nn(C)c2c1CSc1ccccc1-2,,inconclusive: -18.8% [inhibitor]
COC(=O)c1ccc(Oc2nc3c(c(=O)n(C)c(=O)n3C)n2C(C)C)cc1,"inconclusive: 0.891 µM [inhibitor, partial curve]",
CN1/C(=C\C(=S)Nc2ccccc2)C(C)(C)c2ccccc21,,inactive: -13.4%
CC(=O)Nc1scc(C)c1-c1nc2ccccc2s1,"inconclusive: 5.01 µM [inhibitor, full curve]",
Cc1ccccc1C(=O)NC1(C(F)(F)F)N=C(c2ccccc2)N(Cc2ccccc2)C1=O (stereo not given),"inconclusive: 35.5 µM [inhibitor, partial curve, poor fit]",
CCn1ccc2cc(S(=O)(=O)N3CCCN(C(=O)NCC(=O)OC)CC3)ccc21,"inconclusive: 44.7 µM [inhibitor, partial curve, poor fit]",
Cc1cc(C)c(S(=O)(=O)N(C)CC(N)=O)c(C)c1,"inconclusive: 28.2 µM [inhibitor, single point]",
N#Cc1c(/N=C/c2cccnc2)sc2c1CCCC2,"inconclusive: 5.01 µM [inhibitor, single point]",
CSCCC1Nc2ccc(S(=O)(=O)N3CCOCC3)cc2NC1=O (stereo not given),"inconclusive: 15.8 µM [inhibitor, partial curve]",
Cc1ccccc1NC(=O)Cn1c(=O)n(CCC(=O)NCc2ccc3c(c2)OCO3)c(=O)c2sccc21,"inconclusive: 0.224 µM [inhibitor, full curve]",
Fc1ccc(-c2ccnc(=S)[nH]2)cc1,,inactive: 0.349%
CNC(=S)N(CCc1c(C)[nH]c2ccccc12)Cc1ccco1,,inactive: -14%
Cc1ccc(C2C=C(c3ccc(F)cc3)Nc3nc(CCCO)nn32)cc1 (stereo not given),"inconclusive: 50.1 µM [inhibitor, partial curve, poor fit]",
O=C(CSc1nc(-c2ccccc2)nc2c1Cc1ccccc1O2)Nc1ccc(C(=O)O)cc1,"inconclusive: 20 µM [inhibitor, single point]",

SMILES,Potency,"activity change, negative = inhibition"
O=C(N/N=C/c1cc(Cl)cc([N+](=O)[O-])c1O)c1ccccc1NS(=O)(=O)c1cccs1,"inconclusive: 35.5 µM [inhibitor, partial curve]",
COC(=O)c1c(C)oc2ccc(N(C(=O)Oc3ccccc3)S(=O)(=O)c3ccc(C(C)(C)C)cc3)cc12,"inconclusive: 0.631 µM [inhibitor, full curve, poor fit]",
COc1cc(Cl)c(NC2=CC(=O)C(=O)c3ccccc32)c(OC)c1,active: 28.2 µM,
CC(Oc1ccc2ccccc2c1)C(=O)N/N=C/c1cccnc1 (stereo not given),"inconclusive: 7.08 µM [inhibitor, single point]",
O=c1cc(CSc2nc3ccccc3c(=O)[nH]2)c2ccc(O)cc2o1,,inactive: -13.8%
Cc1ccc(OCC(=O)Nc2ccc3nc(SCC(N)=O)sc3c2)cc1,"inconclusive: 44.7 µM [inhibitor, partial curve, poor fit]",
O=C(N/N=C1\C/C(=N\NC(=O)c2ccncc2)c2ccccc21)c1ccncc1,"inconclusive: 0.447 µM [inhibitor, full curve, poor fit]",
CCCCS(=O)(=O)c1oc(-c2ccc(F)cc2)nc1S(=O)(=O)c1ccccc1,"inconclusive: 15.8 µM [inhibitor, partial curve]",
CCN1CCN(Cc2ccc(NC(=O)c3cc(NC(=O)c4ccc5n[nH]nc5c4)cc(OC)c3)cc2C(F)(F)F)CC1,"inconclusive: 0.0891 µM [inhibitor, full curve, poor fit]",
CCOc1ccc(S(=O)(=O)NCc2ccccn2)c(C)c1C,"inconclusive: 28.2 µM [inhibitor, partial curve]",
CC(=O)Nc1ccc(NC(=O)CCC(=O)OCC(=O)c2ccc(C)c([N+](=O)[O-])c2)cc1,"inconclusive: 4.47 µM [inhibitor, single point]",
COc1ccc(C2c3c4c(n(C)c3CCN2C)CCN(C)C4c2ccc(OC)cc2)cc1 (stereo not given),,inactive: -11.7%
COc1ccc(-c2noc(N3CCN(c4ccc(C)cc4)C(C)C3)n2)cc1OC (stereo not given),"inconclusive: 0.562 µM [inhibitor, full curve, poor fit]",
COc1ccc(CSc2nc(C)cc(=O)[nH]2)cc1Br,,inactive: -5.38%
Cc1ccc(-n2nc3ccc(NC(=O)Cc4ccc(Cl)cc4)cc3n2)cc1,"inconclusive: 0.224 µM [inhibitor, full curve]",
Cc1ccc(S(=O)(=O)/N=C2\C=C(NS(=O)(=O)c3ccc(C)cc3)C(=O)c3ccccc32)cc1,active: 20 µM,
CC1=CC(C)(C)N(S(=O)(=O)c2ccc(C)cc2)c2ccccc21,"inconclusive: 22.4 µM [inhibitor, partial curve]",
CC(=O)Nc1nonc1NC(=O)CSC1=NCCS1,,inactive: -8.75%
Cc1ccc(C)c(S(=O)(=O)NCCc2csc(-c3ccc(Cl)cc3)n2)c1,"inconclusive: 70.8 µM [inhibitor, partial curve, poor fit]",
N#CC1(NC(=O)COC(=O)c2cc(O)c3ccccc3c2O)CCCCC1,"inconclusive: 28.2 µM [inhibitor, partial curve]",

# 3 compounds already listed, ordered by SMILES length, ascending:
SMILES,Potency,"activity change, negative = inhibition"
CC(=O)Nc1nonc1NC(=O)CSC1=NCCS1,,inactive: -8.75%
O=c1cc(CSc2nc3ccccc3c(=O)[nH]2)c2ccc(O)cc2o1,,inactive: -13.8%
Cc1ccc(C)c(S(=O)(=O)NCCc2csc(-c3ccc(Cl)cc3)n2)c1,"inconclusive: 70.8 µM [inhibitor, partial curve, poor fit]",
